Assay results published in patent publication US20100021918A1, “METHOD FOR ASSAYING ACTION OF ANTITUMOR AGENT USING SPLICING DEFECTS AS INDEX” (Eisai R&D Management Co., Ltd., priority 2007, published 2010).
Further values from the same series stand in other lists.

Test system: human colon carcinoma cell strain WiDr
Assay: Microarray analysis (2), reviewed conditions, intron expression, Table 3
Assay type: cell-based
Description: WiDr cells were first suspended in RPMI1640 medium (containing 10% FBS, penicillin, and streptomycin) and seeded in a 10 cm dish (2×10^6 cells/dish). After an overnight culture in an incubator with 5% carbon dioxide gas at 37° C., the medium was changed with medium containing 14 nM of (8E,12E,14E)-7-((4-cycloheptylpiperazin-1-yl)carbonyl)oxy-3,6,16,21-tetrahydroxy-6,10,12,16,20-pentamethyl-18,19-epoxytricosa-8,12,14-trien-11-olide or containing vehicle alone. After cultured for additional six hours, TRI reagent (SIGMA) were added to the cells and the cells were harvested. RNA was purified in accordance with the protocol of TRI reagent, followed by further purification with RNeasy (QIAGEN). Absorbance at 260 nm was measured to quantify an amount of RNA. This experiment was repeated three times and RNA samples (n=3) were prepared.
Ribosomal RNA was removed from 1 μg of each total RNA of control cells (n=3) and cells with the treatment (n=3) by using RiboMinus Human/Mouse Transcriptome Isolation Kit (Invitrogen). Single stranded cDNA synthesis, double stranded cDNA synthesis, cRNA synthesis, second single stranded cDNA synthesis, cDNA fragmentation, and cDNA labeling in order were carried out for the total RNA from which ribosomal RNA was removed, by using GeneChip Whole Transcript Sense Target Labeling and Control Reagents (Affymetrix) to make a cDNA probe. The cDNA probe was used for hybridization with Human Exon 1.0 ST Array (Affymetrix). The array was washed and stained, and luminescence intensity was measured by a scanner.
Analysis conditions were reviewed in the data used in Example 3. Genes containing increased introns upon treatment with (8E,12E,14E)-7-((4-cycloheptylpiperazin-1-yl)carbonyl)oxy-3,6,16,21-tetrahydroxy-6,10,12,16,20-pentamethyl-18,19-epoxytricosa-8,12,14-trien-11-olide were identified.
In order to consider the analysis conditions, variations in the data from the samples with identical conditions were studied. […] It turned out that, by analyzing under conditions where the expression level was more than 100 and change in the expression level was more than five times, a probe set with increased expression can be extracted.
Probe sets showing that the normalized change in the level expression of the probe set in the group with the treatment was more than 5 times; the expression level of the probe set and the gene in the group with the treatment were more than 100; and probe set annotation was “extended, full, free”, were picked out. Welch's t-test was conducted with the probe sets extracted for the treated group and the control group to determine a p and q value. A gene containing the probe sets with the q value of less than 5% was determined as a candidate gene with increased expression level of the intron regions (Table 3).
In Table 3, for each gene evaluated, gene name (Gene Name), abbreviated name (Gene Symbol), accession number (Accession), alias name (Synonym), transcription cluster number in Human Exon 1.0 ST Array (Human Exon 1.0 ST Array Transcript Cluster ID), chromosome number (Chromosome), type of strand (Strand), start region (Start), stop region (Stop), and change in expression level (Fold Change) were respectively shown.

SMILES: CCC(O)C(C)C1OC1CC(C)(O)/C=C/C=C(\C)C1OC(=O)CC(O)CCC(C)(O)C(OC(=O)N2CCN(C3CCCCCC3)CC2)/C=C/C1C (stereo not shown) [E7107, (8E,12E,14E)-7-((4-cycloheptylpiperazin-1-yl)carbonyl)oxy-3,6,16,21-tetrahydroxy-6,10,12,16,20-pentamethyl-18,19-epoxytricosa-8,12,14-trien-11-olide]
- Fold Change (gene C6orf111 // USP45, intron expression, treated vs control): 6.68
- Fold Change (gene C6orf166, change in expression level, treated vs control): 19.23
- Fold Change (gene C7orf30, intron expression, treated vs control): 7.46
- Fold Change (gene C8orf53, intron expression, treated vs control): 6.60
- Fold Change (gene C8orf76 // ZHX1, change in expression level, treated vs control): 12.17
- Fold Change (gene C10orf18, change in expression level, treated vs control): 12.16
- Fold Change (gene C11orf30, Transcript Cluster ID 3340913): 5.44
- Fold Change (gene C12orf11, Transcript Cluster ID 3448428, intron expression, treated vs control): 10.50
- Fold Change (gene C12orf41, intron expression, treated vs control): 7.00
- Fold Change (gene C12orf52, change in expression level, treated vs control): 6.31
- Fold Change (gene C14orf32, intron expression, treated vs control): 6.53
- Fold Change (gene C14orf129, change in expression level, treated vs control): 6.35
- Fold Change (gene C16orf72, intron expression, treated vs control): 7.28
- Fold Change (gene C16orf80, Transcript Cluster ID 3693511, intron expression, treated vs control): 10.32
- Fold Change (gene C18orf25, intron expression, treated vs control): 6.78
- Fold Change (gene C19orf48, intron expression, treated vs control): 7.17
- Fold Change (gene C20orf11, intron expression, treated vs control): 6.63
- Fold Change (gene C20orf20, change in expression level, treated vs control): 6.49
- Fold Change (gene C20orf24, Transcript Cluster ID 3883971, intron expression, treated vs control): 10.81
- Fold Change (gene C20orf72, intron expression, treated vs control): 6.94
- Fold Change (gene C20orf77, change in expression level, treated vs control): 10.91
- Fold Change (gene CAB39, change in expression level, treated vs control): 13.97
- Fold Change (gene CABLES1, change in expression level, treated vs control): 12.37
- Fold Change (gene CALM2, change in expression level, treated vs control): 13.54
- Fold Change (gene CAMSAP1, intron expression, treated vs control): 6.81
- Fold Change (gene CAND1, change in expression level, treated vs control): 6.32
- Fold Change (gene CANT1, change in expression level, treated vs control): 11.68
- Fold Change (gene CAPN2, Transcript Cluster ID 2382117): 5.08
- Fold Change (gene CASC3, intron expression, treated vs control): 6.82
- Fold Change (gene CBFB, Transcript Cluster ID 3665116): 5.30
- Fold Change (gene CCDC47, intron expression, treated vs control): 6.84
- Fold Change (gene CCNB1, change in expression level, treated vs control): 11.03
- Fold Change (gene CCND1, change in expression level, treated vs control): 10.91
- Fold Change (gene CCNL1, Transcript Cluster ID 2702307, intron expression, treated vs control): 9.60
- Fold Change (gene CCNL2 // AURKAIP1, Transcript Cluster ID 2391532 (chr1), intron expression, treated vs control): 8.96
- Fold Change (gene CCNL2 // AURKAIP1, Transcript Cluster ID 4041923 (chr1_random), intron expression, treated vs control): 8.99
- Fold Change (gene CCNT1, Transcript Cluster ID 3453218): 5.18
- Fold Change (gene CCT2, intron expression, treated vs control): 6.62
- Fold Change (gene CD59, intron expression, treated vs control): 6.65
- Fold Change (gene CD151 // FKBP9L, Transcript Cluster ID 3316344): 5.23
- Fold Change (gene CDC20, change in expression level, treated vs control): 18.22
- Fold Change (gene CDCA2, Transcript Cluster ID 3090697): 5.28
- Fold Change (gene CDCA4, change in expression level, treated vs control): 20.39
- Fold Change (gene CDR2, Transcript Cluster ID 3684782): 5.42
- Fold Change (gene CDYL, Transcript Cluster ID 2892979): 5.03
- Fold Change (gene CENPL, Transcript Cluster ID 2444451, intron expression, treated vs control): 10.28
- Fold Change (gene CEP72, Transcript Cluster ID 2798777): 5.43
- Fold Change (gene CFL1, Transcript Cluster ID 3377886, intron expression, treated vs control): 9.72
- Fold Change (gene CHD2, intron expression, treated vs control): 6.86
- Fold Change (gene CHERP // CRSP7, Transcript Cluster ID 3853942): 5.06
- Fold Change (gene CHMP4B, intron expression, treated vs control): 6.74
- Fold Change (gene CIRH1A, Transcript Cluster ID 3666566, intron expression, treated vs control): 8.98
- Fold Change (gene CKAP5, Transcript Cluster ID 3371719, intron expression, treated vs control): 9.90
- Fold Change (gene CKS2, change in expression level, treated vs control): 6.01
- Fold Change (gene CLINT1, change in expression level, treated vs control): 20.51
- Fold Change (gene CMIP, Transcript Cluster ID 3670772): 5.42
- Fold Change (gene CNBP, change in expression level, treated vs control): 16.43
- Fold Change (gene COG1, intron expression, treated vs control): 6.58
- Fold Change (gene COPS2, change in expression level, treated vs control): 12.73
- Fold Change (gene COPS7B, change in expression level, treated vs control): 6.06
- Fold Change (gene CORO1C, Transcript Cluster ID 3470549, intron expression, treated vs control): 10.27
- Fold Change (gene COX4NB, change in expression level, treated vs control): 6.21
- Fold Change (gene CSDA, intron expression, treated vs control): 6.51
- Fold Change (gene CSDE1 // NRAS, change in expression level, treated vs control): 6.09
- Fold Change (gene CSNK1D, intron expression, treated vs control): 6.62
- Fold Change (gene CSTB, change in expression level, treated vs control): 6.28
- Fold Change (gene CTDP1, intron expression, treated vs control): 6.54
- Fold Change (gene CTDSPL2, change in expression level, treated vs control): 20.40
- Fold Change (gene CTR9 // TRMU, change in expression level, treated vs control): 13.68
- Fold Change (gene CUGBP1, intron expression, treated vs control): 6.83
- Fold Change (gene CUL1, change in expression level, treated vs control): 6.41
- Fold Change (gene CUL3, intron expression, treated vs control): 6.78
- Fold Change (gene CXorf40A // CXorf40B, change in expression level, treated vs control): 6.08
- Fold Change (gene CYP1B1, intron expression, treated vs control): 7.08
- Fold Change (gene DCBLD2, intron expression, treated vs control): 7.42
- Fold Change (gene DCP1A, change in expression level, treated vs control): 11.27
- Fold Change (gene DCTN5, intron expression, treated vs control): 6.67
- Fold Change (gene DCUN1D5, change in expression level, treated vs control): 11.81
- Fold Change (gene DDEF1, intron expression, treated vs control): 6.85
- Fold Change (gene DDEF2, change in expression level, treated vs control): 18.43
- Fold Change (gene DDX3X, change in expression level, treated vs control): 14.39
- Fold Change (gene DDX5, intron expression, treated vs control): 6.62
- Fold Change (gene DDX10, change in expression level, treated vs control): 6.45
- Fold Change (gene DDX21, change in expression level, treated vs control): 12.56
- Fold Change (gene DDX27, Transcript Cluster ID 3888217, intron expression, treated vs control): 9.83
- Fold Change (gene DDX31, change in expression level, treated vs control): 12.21
- Fold Change (gene DDX42, Transcript Cluster ID 3730899, intron expression, treated vs control): 9.05
- Fold Change (gene DDX47 // APOLD1, Transcript Cluster ID 3405531, intron expression, treated vs control): 9.51
- Fold Change (gene DDX50, intron expression, treated vs control): 6.58
- Fold Change (gene DHPS, Transcript Cluster ID 3851603): 5.37
- Fold Change (gene DHX15, change in expression level, treated vs control): 6.22
- Fold Change (gene DHX36, intron expression, treated vs control): 7.33
- Fold Change (gene DIABLO, change in expression level, treated vs control): 11.73
- Fold Change (gene DKC1, Transcript Cluster ID 3996667, intron expression, treated vs control): 9.04
- Fold Change (gene DKK1, Transcript Cluster ID 3247172, intron expression, treated vs control): 10.89
- Fold Change (gene DNAJA3, Transcript Cluster ID 3646164, intron expression, treated vs control): 9.23
- Fold Change (gene DNAJA5, change in expression level, treated vs control): 6.03
- Fold Change (gene DNAJB1, change in expression level, treated vs control): 10.94
- Fold Change (gene DNAPTP6, change in expression level, treated vs control): 6.15
- Fold Change (gene DNMBP, change in expression level, treated vs control): 6.28
- Fold Change (gene DOT1L, Transcript Cluster ID 3816264, intron expression, treated vs control): 10.70
- Fold Change (gene DULLARD, Transcript Cluster ID 3743501, intron expression, treated vs control): 10.70
- Fold Change (gene DUS3L, Transcript Cluster ID 3847420, intron expression, treated vs control): 9.80
